According to patent US20230277553A1, “THERAPEUTIC COMPOSITION OF CURE-PRO COMPOUNDS FOR TARGETED DEGRADATION OF BET DOMAIN PROTEINS, AND METHODS OF MAKING AND USAGE” (CORNELL UNIVERSITY, priority 2020, published 2023):
Some of these results come from one statement about several compounds together.

molecular target: BRD4 (Homo sapiens, UniProt O60885); experiment: CURE-PRO-mediated BRD4 degradation, Western blot, HeLa cells; assay type: cell-based; design: endogenous in cells; host or cells: HeLa; settings: 24 h, 1:1 with 8047, tested 1 nM-1 μM each
Experimental: All cell lines were purchased from ATCC or DSMZ and grown at 37° C. with 5% CO2. Human HeLa cells were cultured in complete growth medium (Dulbecco's modified Eagle's medium (DMEM) supplemented with 10% FBS); MCF7 cells were cultured in complete growth medium (Dulbecco's modified Eagle's medium (DMEM) supplemented with 10% FBS and 0.01 mg/ml human recombinant insulin (Sigma Aldrich); Namalwa and MOLM-13 cells were cultured in complete growth medium (RPMI 1640 medium supplemented with 10% FBS); MV-4-11 were cultured in complete growth medium (Iscove's Modified Dulbecco's medium, supplemented with 10% FBS); HCT116 cells were cultured in complete growth medium (McCoy's 5a Medium supplemented with 10% FBS). For cellular degradation of BRD4 studies, cells were seeded in a 12-well plate at 70-80% confluency, allowed to attach overnight, and incubated with the indicated compounds for the indicated time. When indicated, a 15-minute pretreatment with 10 μM pomalidomide, 10 μM VHL298, 10 μM Nutlin3a, 1 μM MG-132 or 1 μM Carfilzomib was performed before the addition of CURE-PROs. For washout studies, after CURE-PRO treatment, media was aspirated and incubated with complete medium for the indicated time before lysis.
Anti-BRD4 (13440, 1:1,000 dilution for Western Blot and 1:25 dilution for ProteinSimple); Anti-BRD2 (5848 1:1,000 dilution for Western Blot and 1:25 dilution for ProteinSimple); β-Actin (3700, 1:2,000 dilution for Western Blot), β-Actin (4970, 1:50 dilution for ProteinSimple) anti-mouse IgG-HRP, and anti-rabbit IgG-HRP antibodies were purchased Cell Signaling Technology. […]
HeLa, MCF7, or HCT116 cells (2.5-3×10^6) were treated for 24 hours with the indicated compounds solubilized in DMSO. […] The total protein concentrations were determined by Bradford Protein Assay and 10-20 μg of protein was loaded onto 4-15% Tris-Glycine gradient gels (Biorad). […] Signal was detected with ECL Western Blotting Substrate (Pierce) and X-ray film processed with a Konica SRX-101 X-ray film processor or captured by Bio-Rad's Chemidoc Imaging system. […]

| Compound | Concentration from which BRD4 degradation is observed, co-dosed with 8047 [nM] |
| --- | --- |
| COc1ccc2c(c1)C(c1ccc(Cl)cc1)=N[C@@H](CC(=O)NCCNC(=O)/C=C/c1cccc(B(O)O)c1)c1nnc(C)n1-2 [BRD-E30, (3-((E)-3-((2-(2-((4S)-6-(4-chlorophenyl)-8-methoxy-1-methyl-4H-benzo[f][1,2,4]triazolo[4,3-a][1,4]diazepin-4-yl)acetamido)ethyl)amino)-3-oxoprop-1-en-1-yl)phenyl)boronic acid] | ≥ 100 |
| CCNC(=O)C[C@@H]1N=C(c2ccc(Cl)cc2)c2cc(-c3cccc(B(O)O)c3)ccc2-n2c(C)nnc21 [BRD-E72, (3-((4S)-6-(4-chlorophenyl)-4-(2-(ethylamino)-2-oxoethyl)-1-methyl-4H-benzo[f][1,2,4]triazolo[4,3-a][1,4]diazepin-8-yl)phenyl)boronic acid] | ≥ 100 |
| CCNC(=O)C[C@@H]1N=C(c2ccc(Cl)cc2)c2cc(OCCCCCCNC(=O)c3ccc(B(O)O)cc3)ccc2-n2c(C)nnc21 [BRD-E79, (4-((6-(((4S)-6-(4-chlorophenyl)-4-(2-(ethylamino)-2-oxoethyl)-1-methyl-4H-benzo[f][1,2,4]triazolo[4,3-a][1,4]diazepin-8-yl)oxy)hexyl)carbamoyl)phenyl)boronic acid] | ≥ 100 |
